From PMC10762069
Results are given in words; binding and its absence hold for the method and conditions named. In cells and extracts the contact can be indirect. Here binding means that the protein was enriched with, or labelled near, the bait; the list need not be complete. Where a sequence is shown, tags or fusion partners need not be part of it.

Protein sequences, listed by entry. Tags and fused reporters are not part of them.
UniProt O35129: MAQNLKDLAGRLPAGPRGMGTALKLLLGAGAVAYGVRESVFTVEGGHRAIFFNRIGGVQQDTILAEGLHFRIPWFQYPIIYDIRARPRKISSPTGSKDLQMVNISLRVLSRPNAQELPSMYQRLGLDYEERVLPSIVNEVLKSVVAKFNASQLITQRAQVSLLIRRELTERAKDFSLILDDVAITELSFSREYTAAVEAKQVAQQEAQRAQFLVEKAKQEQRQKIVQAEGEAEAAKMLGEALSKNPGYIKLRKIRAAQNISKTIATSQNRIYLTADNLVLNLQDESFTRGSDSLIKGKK

Biological target: T1, His-tagged GCA (grancalcin) (UniProt Q8VC88)
T1 sequence: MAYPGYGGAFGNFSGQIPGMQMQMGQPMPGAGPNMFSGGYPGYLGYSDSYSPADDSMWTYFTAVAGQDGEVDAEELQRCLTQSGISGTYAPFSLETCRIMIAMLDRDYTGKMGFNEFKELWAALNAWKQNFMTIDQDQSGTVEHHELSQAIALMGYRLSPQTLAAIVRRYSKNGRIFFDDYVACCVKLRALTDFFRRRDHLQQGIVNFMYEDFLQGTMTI
Assay: affinity purification with mass spectrometry; cytomembrane proteins of differentiated 3T3-L1 adipocytes incubated with His-tagged GCA; pulled down by nickel beads; mass spectrometry; only the target purified

## Prohibitin-2 (PHB2), endogenous in 3T3-L1 adipocytes (from UniProt O35129 1-299)
  binding: binds
